Assay results as given in article PMC4238974.
These are yes or no findings as the source states them, for the method shown. In cells and extracts the contact can be indirect.

The chains behind the UniProt entries cited, without tags or fusion partners.
UniProt V5IN79: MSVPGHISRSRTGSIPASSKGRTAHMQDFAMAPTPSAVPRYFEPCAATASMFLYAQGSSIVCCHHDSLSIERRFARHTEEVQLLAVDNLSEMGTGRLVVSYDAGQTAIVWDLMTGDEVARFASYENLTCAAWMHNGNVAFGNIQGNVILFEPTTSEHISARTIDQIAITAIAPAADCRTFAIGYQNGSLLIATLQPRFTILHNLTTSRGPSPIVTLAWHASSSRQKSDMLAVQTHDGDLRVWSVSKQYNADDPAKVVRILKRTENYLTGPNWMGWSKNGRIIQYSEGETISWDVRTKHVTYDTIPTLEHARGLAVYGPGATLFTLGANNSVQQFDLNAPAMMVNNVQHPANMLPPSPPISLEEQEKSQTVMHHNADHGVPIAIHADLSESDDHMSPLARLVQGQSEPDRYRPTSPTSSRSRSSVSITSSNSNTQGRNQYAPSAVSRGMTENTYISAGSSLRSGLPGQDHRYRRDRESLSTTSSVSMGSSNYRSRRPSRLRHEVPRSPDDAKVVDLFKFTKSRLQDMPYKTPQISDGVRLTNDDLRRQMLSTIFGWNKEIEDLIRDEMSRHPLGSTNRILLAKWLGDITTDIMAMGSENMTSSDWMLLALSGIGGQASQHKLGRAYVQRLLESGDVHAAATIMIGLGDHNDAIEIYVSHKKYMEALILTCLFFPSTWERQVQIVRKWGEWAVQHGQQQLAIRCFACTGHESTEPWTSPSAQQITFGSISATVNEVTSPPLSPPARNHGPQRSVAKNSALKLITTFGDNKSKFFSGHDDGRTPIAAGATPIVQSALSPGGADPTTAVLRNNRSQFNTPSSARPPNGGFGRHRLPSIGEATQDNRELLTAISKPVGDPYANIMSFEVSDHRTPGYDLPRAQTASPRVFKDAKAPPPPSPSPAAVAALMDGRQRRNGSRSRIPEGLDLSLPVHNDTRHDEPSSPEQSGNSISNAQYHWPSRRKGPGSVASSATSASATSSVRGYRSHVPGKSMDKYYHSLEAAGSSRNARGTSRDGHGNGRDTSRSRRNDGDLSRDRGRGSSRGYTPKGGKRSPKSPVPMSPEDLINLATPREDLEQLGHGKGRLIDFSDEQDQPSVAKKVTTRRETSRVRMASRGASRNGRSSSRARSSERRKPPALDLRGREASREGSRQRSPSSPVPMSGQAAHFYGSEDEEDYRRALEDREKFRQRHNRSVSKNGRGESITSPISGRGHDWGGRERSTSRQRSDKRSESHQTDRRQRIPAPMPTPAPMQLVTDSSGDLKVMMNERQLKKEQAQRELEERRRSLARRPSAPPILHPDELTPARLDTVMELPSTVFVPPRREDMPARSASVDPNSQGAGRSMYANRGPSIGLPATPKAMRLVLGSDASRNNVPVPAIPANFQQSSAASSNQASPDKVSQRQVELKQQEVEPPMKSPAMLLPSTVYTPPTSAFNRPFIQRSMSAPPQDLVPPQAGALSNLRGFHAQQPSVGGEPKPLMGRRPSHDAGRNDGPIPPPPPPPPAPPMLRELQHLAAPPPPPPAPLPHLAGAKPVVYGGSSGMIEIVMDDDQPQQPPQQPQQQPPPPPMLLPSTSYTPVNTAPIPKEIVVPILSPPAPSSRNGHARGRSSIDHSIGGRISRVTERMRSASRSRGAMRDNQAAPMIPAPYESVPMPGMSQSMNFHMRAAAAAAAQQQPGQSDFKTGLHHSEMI

Molecular target: HAM-5-GFP (full length HAM-5, hyphal anastomosis-5, tagged with GFP) (Neurospora crassa) (UniProt V5IN79)
Experiment: co-IP; lysate of 5 hr-old N. crassa germlings; anti-GFP antibody covalently bound to Protein G Dynabeads, overnight at 4°C, washed three times with PBS; blot probed with anti-mCherry antibodies

B1: SO-mCherry (protein, UniProt Q7SDK1 1-1304)
chain: MSRSRGVPDEELFISRPRPSDEDCDSPTVEPLRIFKPMSPKLPGAADKASENRYKYPAPPTSSAASASASKPSIAPLPGLPGLPPLPSFPLPPGASSSAAPLPYPDDDLSRPTQASKPARAPYPVDDVRRPSPASSTGRIYSPPPVSSSPQLHNDTTPRLNISPIEKKPGLADRRGAVPKPLQSPDSPNGDDLFAKPLGRPPQQPALQPVHPAQKISNAYQQKPYYPPPGGGNVRMNSEPSIARISSTASTSTTRASRGSPPPPETPIVEPGVVPGGGIEARYAAAGISGTATLTSLQAQTAQSAAAQSRLAQYGGQRPPSQPQQHSQHPALAQSQQQQQPQAQAQPPRPWTPTETPDQQPFGPPTVYQGDAVAQNPQPARPQPQQQNSFNLPKNPEPVSNAPAGSSLQVSVLEQDFQRMQASTPPPAYSSVTPNASSNYPAEKQRPAQTHPATASTTTTTTNNNNNSHSNNATPNPTSRPATTASGSSSRPVNTASPAPASSIHKPKPVAVAASQTPAQQHPGHPAFANEPQHPAQVAHNVGHPALQHTPSLMASTQAPPPLPEGWIAHLDQNSGQYYYIHLATQATQWEFPKGPNPISHEAAPLSPTASTYGNPLASPLLGGKTGLASPMFHPQTPGYAESIMTVASAAPSGFTGPPPSAGVDMYKIMPTNGVYFGPYLRYVNMDLEKGVWHGSILIVTDAPQPPTIHIHLSVDLSPNPRQLIPHNIWTHQRWVFYKYDMDLQMSEHGTERWTYAVTSHLGCTRYEFIVAGRYETGWRMIAHSGNDFAPSTNQNERAKLGGVGFMWKDILQKNVECGGFHVQLGLGDQIYGDRLWREVPILKQWLAIAGRENRKNVPWTARHEEDVTHAYFHYYTSHFDQPFMREAFAQIPHVLQIDDHDIFDGFGSYPEYMQSSAIFKNIGRIAIDMYLLFQHHTTVEMLRNVSSDMDLFTITGAGWHFVKYLGPAVVVVGPDCRSERTQTRVMAGPTYQGLFPKVAMLPPSVQHCIWMLSVPVVYPRLETVETLANTFATGKKAVNTTYNLLGKVTSSVAGVVGGKEVVAHGFKEVKRAVGKSGLMGNVLNQFGEIDIAEELKDLWTHESKDLERTYLIRTLQGIAQQKGIRMTFLSGDVNSAGAGLLHDPSHPSDHKTMYQLITSPIVAAPCSSYLLKALHSGSNSNKLLYVPLNGHKSTHEVSDTKEDMMEIFHTDASGAAREYKKLMARRNYVAIVAYDPDAGVNMGMGMGGLQQTGYAASVHSGGSNGSGLNKLSLAVDFVVQGDGAFTATTKYGPVIVPHLEYGH
With B1 the binding was “no binding”.
